Values from PubChem BioAssay AID1159578 (Peter MacCallum Cancer Centre, 2015)
The deposit covers about 18,000 reagents; this is a random part of them. About 1,030 of them (5.7%) count as active. 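Inactive calls also include pools with fewer than 3300 nuclei, whose migration was not assessed.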 Raw values are not corrected between plates. Not all columns of the deposit are shown. Reagent sequences are not shown.

Screen: 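siRNA pools altering how lymphatic endothelial cells close a scratch wound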 (primary screen)
System: human lymphatic endothelial cells
Reagent: siRNA pool against human genes, 40 nM
Timing: 48 h after transfection
Measured: 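High-content imaging of dye-stained cells in a scratch assay measures filled wound area and nuclei per well; duplicate means given as ratio to mock and robust z-score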
Reading the numbers: migration robust z-score: higher = faster migration into the scratch; nuclei per well: higher = more cells in the well
Call rule: 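Migration changed when robust z exceeds 2 or falls below -2 and mean nuclei number is at least 3300; otherwise not called changed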
Calls: active = migration changed; inactive = no migration change, or too few cells

After knock-down of TNIP1 the results were migration robust z-score -0.05; nuclei per well, duplicate mean 7062; inactive.
Against ACP6, the entry reads migration robust z-score 1.04; nuclei per well, duplicate mean 6690; inactive.
Knock-down of HOXA1 came out at: migration robust z-score 1.22; nuclei per well, duplicate mean 5087; inactive.
Depletion of BARD1 resulted in: migration robust z-score -0.08; nuclei per well, duplicate mean 5532; inactive.
After knock-down of RAPGEFL1, the screen gave migration robust z-score 1.58; nuclei per well, duplicate mean 5516; inactive.
After knock-down of PTGR3, the screen gave migration robust z-score -1.74; nuclei per well, duplicate mean 5426; inactive.
Silencing of DRG2 resulted in: migration robust z-score -0.7; nuclei per well, duplicate mean 4768; inactive.
For RAB32, the values are migration robust z-score -0.8; nuclei per well, duplicate mean 5514; inactive.
For HNRNPH2, the entry reads migration robust z-score -0.92; nuclei per well, duplicate mean 5199; inactive.

Sorted by “migration robust z-score” (ascending): 2 of the entries above.
BARD1 → migration robust z-score: -0.08; nuclei per well, duplicate mean: 5532; outcome: inactive
RAPGEFL1 → migration robust z-score: 1.58; nuclei per well, duplicate mean: 5516; outcome: inactive

The list goes on:
DRGX showed migration robust z-score 0.88; nuclei per well, duplicate mean 5234; inactive.
CNOT2 gave migration robust z-score -0.27; nuclei per well, duplicate mean 5608; inactive.
After knock-down of NPM3 the results were migration robust z-score 1.66; nuclei per well, duplicate mean 7144; inactive.
Against SHOX2, the entry reads migration robust z-score -1.82; nuclei per well, duplicate mean 6574; inactive.
Knock-down of STPG4 gave: migration robust z-score -0.68; nuclei per well, duplicate mean 5177; inactive.
Knock-down of CDH12 came out at: migration robust z-score 0.95; nuclei per well, duplicate mean 6018; inactive.
Silencing of LTF came out at: migration robust z-score 0.16; nuclei per well, duplicate mean 5332; inactive.
With knock-down of SERPINI1 the results were migration robust z-score -1.27; nuclei per well, duplicate mean 4384; inactive.
Depletion of ZMAT3 gave: migration robust z-score 0.26; nuclei per well, duplicate mean 5928; inactive.
YTHDC2 gave migration robust z-score -1.12; nuclei per well, duplicate mean 4600; inactive.
After knock-down of SPOCD1 the results were migration robust z-score -0.34; nuclei per well, duplicate mean 6315; inactive.
KCNK17 scored migration robust z-score -1.71; nuclei per well, duplicate mean 4440; inactive.
